# Experimental data reported in PubChem BioAssay AID2685 (National Center for Advancing Translational Sciences (NCATS), 2010).
# Some of the results follow. These are further read-outs of the screen, such as a control signal, another cell line or another target. No call is given for them. Compounds called inactive in the main read-out are mostly missing here. Words in brackets tell the shape of the fitted curve; partial curves, single points and poor fits give uncertain potencies.
# Test: qHTS Assay for Lipid Storage Modulators in Drosophila S3 Cells;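 as to cell number change: cells counted by Cell Tracker Red CMTPX staining in the red channel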
# Details: BODIPY lipid droplet fluorescence, 18-24 h; for cell number change: measured here: cell count max response, cells fed with added oleic acid
# Summary of the method: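 Laser-scanning cytometry quantifies lipid droplet accumulation (500–530 nm total intensity; droplet/cell object ratio) in oleic acid-fed (400 uM added) Drosophila S3 cells treated with a concentration series. 20 uM Triacsin C defined 100% inhibition.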
# [1] = measured here: lipid fluorescence (Fed channel) AC50, cells fed with added oleic acid
# [2] = measured here: cell number channel AC50, cells fed with added oleic acid
SMILES,cell number change,AC50 [1],AC50 [2]
O=[N+]([O-])c1ccc(C2CCCC/C2=N/O)c([N+](=O)[O-])c1 (centres undefined),27.2%,"23.1 µM [rising, single point]",
O=C(CNCc1cccs1)Nc1ccc(S(=O)(=O)N2CCCCC2)cc1,32.8%,,"13 µM [rising, single point]"
Cc1ccc(C(=O)Nc2ccc(Cl)cc2C)c(Cl)c1,26.4%,"0.651 µM [falling, single point]",
CCOC(=O)NC(=O)/C(C#N)=C\Nc1ccc(Cl)cc1Cl,-8.01%,,"0.146 µM [falling, full curve, poor fit]"
O=C(NCC(=O)N1CCN(S(=O)(=O)c2ccccc2F)CC1)c1ccc(Br)o1,41.3%,"11.6 µM [rising, partial curve, poor fit]",
CC(C)C(c1nnnn1Cc1ccccc1)N(Cc1ccco1)Cc1cccs1 (centres undefined),-9.75%,"0.0058 µM [rising, full curve, poor fit]",
CC(C)C(=O)NC(=S)Nc1c(Cl)ccc2nsnc12,17.9%,"0.116 µM [rising, full curve, poor fit]",
O=C(CCCC(=O)NC1CCCCC1)Nc1ccc([N+](=O)[O-])cc1,,"0.13 µM [falling, full curve]",
O=C(Cn1c(CO)nc2ccccc21)Nc1ccccc1Cl,,"6.51 µM [rising, single point]","1.84 µM [rising, single point]"
CC(NC(=O)COc1ccccc1)C(c1cccs1)N1CCCC1 (centres undefined),3.11%,"0.13 µM [falling, full curve, poor fit]",
O=C(Nc1cccc(Cl)c1)N1CCN(Cc2ccccc2)CC1,19.5%,"29.1 µM [rising, single point]",
O=C(Nc1nnc(CC(=O)N2CCOCC2)s1)C1COc2ccccc2O1 (centres undefined),-1.12%,,
CC(NC(=O)COC(=O)c1cn(-c2ccccc2)nc1-c1cccs1)c1ccccc1 (centres undefined),81.5%,,"18.4 µM [rising, single point]"
CCc1ccc(NC2=NC(C(=O)c3ccccc3)CC(=O)N2)cc1 (centres undefined),-20.1%,"0.00731 µM [falling, full curve]",
Cc1nc2cc(-c3ccccc3)ccc2o1,-15.5%,,
O=C(CSc1nnc(CN2CCOCC2)n1-c1ccc(Cl)cc1)Nc1cc(Cl)ccc1O,-7.27%,,
O=C(O)CCN=Cc1c(O)c2ccccc2oc1=O,-6.74%,"29.1 µM [falling, single point]",
CCN(Cc1nc2ccccc2n1C)c1ccccc1,-9.12%,"29.1 µM [rising, single point]",
N#CCSc1nnc2ccc3ccccc3n12,110%,"29.1 µM [rising, single point]","20.6 µM [rising, single point]"
CCc1nnc(NC(=O)CCC(=O)N2CCN(Cc3ccc(OC)c(F)c3)CC2)s1,-3.36%,,

# 3 successive entries out of the list so far, quoted:
SMILES,cell number change,AC50 [1],AC50 [2]
O=C(NCC(=O)N1CCN(S(=O)(=O)c2ccccc2F)CC1)c1ccc(Br)o1,41.3%,"11.6 µM [rising, partial curve, poor fit]",
CC(C)C(c1nnnn1Cc1ccccc1)N(Cc1ccco1)Cc1cccs1 (centres undefined),-9.75%,"0.0058 µM [rising, full curve, poor fit]",
CC(C)C(=O)NC(=S)Nc1c(Cl)ccc2nsnc12,17.9%,"0.116 µM [rising, full curve, poor fit]",

# Next part:

SMILES,cell number change,AC50 [1],AC50 [2]
CCCCN(CC)CCNC(=O)c1cc2c(=O)n(C)c3ccccc3c2n1C,48.4%,"5.17 µM [rising, full curve]","6.51 µM [rising, full curve]"
CN1CCN(C(=O)N2CCNC2=O)CC1,9.72%,"16.4 µM [falling, single point]",
C=C(C)Cn1c(SCC)nc2ccccc2c1=O,48.3%,,
Cc1cc(C)nc(N2CCC(C(=O)NC3CCCc4ccccc43)CC2)n1 (centres undefined),18.1%,"32.6 µM [falling, single point]",
CC(C)c1cc[n+](-c2nc([O-])sc2C=O)cc1,5.8%,"6.51 µM [falling, single point]",
COc1ccccc1CNC(=O)Cn1cnc2ccccc2c1=O,4.04%,"4.61 µM [falling, single point]",
O=C(CCN1C(=O)c2ccc([N+](=O)[O-])cc2C1=O)Nc1ccc(O)cc1C(=O)O,-5.18%,,
Cc1ccc(C(=O)N2CCCC2)cc1Br,0.26%,"0.184 µM [falling, full curve, poor fit]","0.00517 µM [falling, full curve, poor fit]"
Cc1sc2nc(SCC(=O)N3CC(C)OC(C)C3)n(C)c(=O)c2c1C (centres undefined),-12.6%,,
CC1CC(C)CN(C(=O)c2ccc(C#N)cc2)C1 (centres undefined),-23.8%,"13 µM [falling, partial curve]",
Cc1cc(NC(=O)CN2CCCCCCC2)no1,-0.52%,"0.00651 µM [falling, full curve, poor fit]",
O=[N+]([O-])c1cccc(NC(=S)N2CCN(c3ccccn3)CC2)c1,56.9%,"29.1 µM [rising, single point]","20.6 µM [rising, single point]"
COc1ccc(S(=O)(=O)N2CCc3cc4c(cc3C2C)OCCCO4)cc1 (centres undefined),-21.5%,"0.58 µM [falling, single point]",
Cc1ccc(C)c(C(=O)CSc2nc(N)cc(=O)[nH]2)c1,-22.5%,,
CCn1cc(C(=O)N[C@@H](CC(C)C)C(=O)NCCCn2ccnc2)c(=O)c2cc3c(cc21)OCO3,0.472%,"29.1 µM [rising, partial curve]","3.26 µM [rising, single point]"
Cc1csc(NC(=O)CSc2ncc(-c3ccccc3)[nH]2)n1,-35.2%,"8.2 µM [falling, single point]","0.103 µM [falling, single point]"
O=C(N1CCOCC1)N1CCCC(c2nc(-c3cccs3)no2)C1 (centres undefined),4.1%,,
Cc1ccccc1NC(=O)NCCCN1CCN(c2ccccc2)CC1,111%,"2.91 µM [rising, partial curve]","7.31 µM [rising, partial curve]"
COCc1c(C)cc(C)c(/C=N/O)c1C,33.6%,"20.6 µM [rising, single point]","6.51 µM [rising, partial curve, poor fit]"
CCCC(C(=O)NCc1ccco1)N(Cc1ccco1)C(=O)CNS(=O)(=O)c1ccccc1 (centres undefined),13.4%,,

SMILES,cell number change,AC50 [1],AC50 [2]
C/C(CC(C)C)=N\NC(=O)Nc1ccccc1,-25.8%,"18.4 µM [falling, single point]",
O=C(NCCCCc1ccccc1)c1ccccc1F,-10.2%,"5.8 µM [falling, full curve]",
C1CCC2(CC1)OCC1(CO2)COC2(CCCCC2)OC1,-7.16%,"0.651 µM [falling, full curve, poor fit]",
CC(C)NS(=O)(=O)c1ccc(OCC(=O)Nc2ccc3c(c2)OCO3)c(Cl)c1,93.2%,"0.0731 µM [rising, full curve]","18.4 µM [rising, partial curve, poor fit]"
CC(=O)Oc1ccc2c(c1)OC(c1ccccc1)CC21CC(C)(C)NC(=S)N1 (centres undefined),14.9%,"29.1 µM [rising, single point]",
O=C(O)CCC(=O)N1N=C(c2ccc(Br)cc2)CC1c1cccc(Br)c1 (centres undefined),-17.8%,,
CCCN1C(=O)c2ccc(C(=O)Nc3cc(C)on3)cc2C1=O,,"23.1 µM [rising, single point]",
Cc1cccc(Nc2ccc([N+](=O)[O-])cc2C(=O)O)c1,28.4%,,
COc1ccc(NC(=O)c2c(OC)cccc2OC)c(OC)c1,-2.5%,"29.1 µM [rising, single point]",
COc1ccc(C(=O)Nc2ccc(Cl)cn2)cc1S(=O)(=O)N1CCCC1,40.4%,"1.03 µM [rising, partial curve, poor fit]","9.2 µM [rising, partial curve, poor fit]"
CC(C(=O)NC1C=CS(=O)(=O)C1)N1C(=O)/C(=C/c2ccc(Cl)cc2)SC1=S (centres undefined),-14.1%,"29.1 µM [rising, single point]",
O=C(NCC(=O)N1CCOCC1)c1ccc(Br)cc1,11.1%,"18.4 µM [rising, partial curve, poor fit]",
CCOC(=O)N1CCN(C(=O)c2ccc3nc(-c4ccccc4)c(-c4ccccc4)nc3c2)CC1,,"4.61 µM [rising, single point]",
COc1ccccc1NC(=S)N(CCc1nc2cc(C)c(C)cc2[nH]1)Cc1cccnc1,-7.76%,"1.3 µM [falling, full curve]",
COc1cc2c(=O)n(Cc3ccccc3)c(=O)n(CC(=O)NCC3CCCO3)c2cc1OC (centres undefined),3.67%,"5.8 µM [rising, partial curve]",
O=C(COC(=O)/C=C/c1ccc2c(c1)OCO2)Nc1ccc(S(=O)(=O)N2CCCC2)cc1,-67%,"29.1 µM [falling, single point]","9.2 µM [falling, partial curve]"
NS(=O)(=O)c1cccc(NC(=S)NC(=O)c2cccc([N+](=O)[O-])c2)c1,-32%,"29.1 µM [falling, single point]","29.1 µM [falling, single point]"
CC(C)Nc1nnc(Sc2ccc(Cl)cc2[N+](=O)[O-])s1,31.7%,"8.2 µM [rising, partial curve]","8.2 µM [rising, partial curve]"
CC(C)(C)OC(=O)N1CCC(NC(=O)c2nc[nH]c2C(=O)N2CCN(C(=O)OC(C)(C)C)CC2)CC1,15.6%,"0.00517 µM [falling, full curve, poor fit]","0.0231 µM [falling, full curve, poor fit]"
CSCCC(NS(=O)(=O)c1ccc(Cl)cc1)C(=O)OCC(=O)N1CCOCC1 (centres undefined),1.17%,"0.00517 µM [falling, full curve, poor fit]",
